Drawing on patent US12569502B2, “Use of bile acids and derivatives thereof in preparation of GPR39 agonist” (PEKING UNIVERSITY, priority 2019, dated 2026), this text covers EC50 for 1 compound.

Protein sequences, listed by entry. Tags and fused reporters are not part of them.
UniProt Q5U431, whole entry T447P: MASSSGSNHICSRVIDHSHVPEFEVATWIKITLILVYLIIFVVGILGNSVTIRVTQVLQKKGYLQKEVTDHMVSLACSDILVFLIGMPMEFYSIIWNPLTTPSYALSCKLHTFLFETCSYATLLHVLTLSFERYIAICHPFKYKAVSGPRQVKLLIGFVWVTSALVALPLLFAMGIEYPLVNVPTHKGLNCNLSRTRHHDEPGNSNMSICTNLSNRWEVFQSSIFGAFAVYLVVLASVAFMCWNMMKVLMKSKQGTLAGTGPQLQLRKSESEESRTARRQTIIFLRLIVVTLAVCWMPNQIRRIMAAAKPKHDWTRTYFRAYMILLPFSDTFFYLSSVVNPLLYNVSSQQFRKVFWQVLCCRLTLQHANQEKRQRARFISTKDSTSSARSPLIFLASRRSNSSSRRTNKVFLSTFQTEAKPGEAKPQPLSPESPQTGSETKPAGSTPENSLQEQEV

For the test, the target named is GPR39 receptors on m39-20 cell lines (Mus musculus, UniProt Q5U431, T447P). Nature of the test: FLIPR calcium imaging on m39-20 cell lines stably expressing murine-derived GPR39. As to conditions: read-out: Only bile acid EC50; m39-20 cells, no zinc ions.

Some entries of the source have several records that differ or are many. This is not the full list of results. The source may hold further records. Results that share an entry differ, and nothing given here explains why; they may come from other doses, times, organisms or constructs than stated.

What is called EC50 is the concentration giving half of the maximal effect.

Regarding `C[C@H](CCC(=O)NCCS(=O)(=O)O)[C@H]1CC[C@H]2[C@@H]3CC[C@@H]4C[C@H](OS(=O)(=O)O)CC[C@]4(C)[C@H]3CC[C@]12C` [TLCAS], the EC50 is 71.6 µM and > 200 µM.
